Paper PMC8902620, “Oligomerization of DNA replication regulatory protein RADX is essential to maintain replication fork stability” (The Journal of Biological Chemistry, 2022)
Where a chain is given by its changes, count along the chain named. Names and notes keep the numbering of the source. Results are given in words; binding and its absence hold for the method and conditions named. Some results given as binding are weak or reduced against the parent protein; the word gives no strength. Values belong to the molecule of their own block, whether it stands above or below them.

The chains behind the UniProt entries cited, without tags or fusion partners.
UniProt Q06609: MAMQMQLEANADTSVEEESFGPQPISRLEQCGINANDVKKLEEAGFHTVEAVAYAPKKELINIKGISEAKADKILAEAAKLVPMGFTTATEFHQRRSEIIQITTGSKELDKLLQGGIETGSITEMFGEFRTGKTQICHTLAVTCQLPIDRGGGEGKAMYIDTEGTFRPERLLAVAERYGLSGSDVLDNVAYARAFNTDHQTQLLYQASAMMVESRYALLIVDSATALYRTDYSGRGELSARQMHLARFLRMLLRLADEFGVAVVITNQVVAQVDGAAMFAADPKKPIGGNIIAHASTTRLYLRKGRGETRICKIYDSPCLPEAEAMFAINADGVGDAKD

Tests used:
RAD51 = RAD51 (UniProt Q06609); test: co-IP; purified RAD51 (100 nM) held on RAD51 antibody and Protein G magnetic beads, purified RADX WT or mutant added for 1 h; 50 mM Tris pH 8.0, 200 mM NaCl, 2 mM CaCl2, 2 mM ATP, 1 mM DTT; immunoblot; both purified
[1] = target: full-length RADX, wild type, tagged with mCherry-FLAG or with GFP-HA (human) (UniProt Q6NSI4); test: co-IP; purified mCherry-FLAG proteins mixed with purified GFP-HA-RADX and captured on GFP-trap magnetic agarose beads, 1 h at 4 °C; 50 mM Tris pH 7.5, 250 mM NaCl, 10% glycerol, 0.05% NP-40; immunoblot; both purified

binding (RAD51): binds
Molecule: full-length RADX, wild type, tagged with mCherry-FLAG or with GFP-HA (from UniProt Q6NSI4 1-855)

binding [1]: no binding
Molecule: mCherry-FLAG-RADX domain 4 (675–727) (from UniProt Q6NSI4 675-727) (domain or fragment)

binding (RAD51): binds
B1: mCherry-FLAG-RADX E842K (natural protein, human, UniProt Q6NSI4 1-855, looked up)
chain: MSGESGQPEAGPSHAGLDWPNPERNRAGVPGGVIRRAGSQGPRSWIQKVLEQIMDSPRQCVTPSEVVPVTVLAVQRYLLEDEPRDTVPKPPLYCYDVTISDGVYQEKCYLDPSLNSLVYQNILKVGIQMRISRVSCLYNEKRIGQGILCIDNVHCGETSDSISLETPFRNRAHQEKPERPLRGGKSHYLALWNNEDPYGDIWLTDKQPEEHNFSDTKIISLSHLEMTWTNRRNFPALLVRILHKSKLRYYGKPDKKMIEPYQTFLEVADSSGTVSVIMWNALCPEWYKSLRVGLVLLLQDYSVKKSYPFRIQPVPVDPQIKLISTMEICLNLRDPPTNIIIIPEKQVKPEWRLPKLNHRFTTRSELDDMPENCICDVIGLLVFVGRVQRSKKKENREDFWSYRWIHIADGTSEQPFIVELFSTSQPEIFENIYPMAYFVCTQLKVVRNDNQVPKLLYLTTTNESGVFITGHRGQPYTYDAKVKNFIQWIRTKSDSGEQKNMVIGGYYPYPPVPETFSKYSSSIKVESLLTAISEVRKEIEDLQYREQKRIAIQGIITAIKYIPHSSATESASASETLRNANRPSTSQAARVEIQERNGKRHQDDEPVNSQYFQTTSTNLSLSNKIRILQGPHANPVAVPQPGASVQTKGIKPGMPSIFNRRANINANLQGKARKTISDRWESQLWREKKFGLIDHLHYSRVYPESIPRKFMFEHRKFLSDQYNSQPAKYVPPEGRPPKLDDFKSARSLGHFEVTILGLNHEIAIDVAFLPMYCPEDIRTSQIDTLLTSMNYSCAYPQDTTGNDRLPGPRAVAGDIIKAATELDRVHIVGILDICNLGNNKVKVYLHKIYSPENTS
notes: RADX, human, full length with one point mutation; also called E842K RADX; pTM156; source: HEK293T, purified (anti-FLAG M2 beads, 3x FLAG peptide, Superdex 200)

binding (RAD51): binds
B2: mCherry-FLAG-RADX K847D (natural protein, human, UniProt Q6NSI4 1-855, looked up)
chain: B1 chain with K842E, K847D
notes: RADX, human, full length with one point mutation; also called K847D RADX; pTM157; source: HEK293T, purified (anti-FLAG M2 beads, 3x FLAG peptide, Superdex 200)
